These are yes or no findings as the source states them, for the method shown. Some results given as binding are weak or reduced against the parent protein; the word gives no strength.

Holding throughout (assay): two-hybrid; AD (pGAD-C(1)) and BD (pGBD-C(1)) fusions in yeast PJ69-4; dual transformants tested on media lacking leucine, tryptophan and adenine; positive if all tested colonies (4 to 10) grew; both combinations of clones tested whenever possible
In experiment [1] the target is T1, AtPCFS4 (Arabidopsis) (UniProt Q0WPF2).
T1 sequence: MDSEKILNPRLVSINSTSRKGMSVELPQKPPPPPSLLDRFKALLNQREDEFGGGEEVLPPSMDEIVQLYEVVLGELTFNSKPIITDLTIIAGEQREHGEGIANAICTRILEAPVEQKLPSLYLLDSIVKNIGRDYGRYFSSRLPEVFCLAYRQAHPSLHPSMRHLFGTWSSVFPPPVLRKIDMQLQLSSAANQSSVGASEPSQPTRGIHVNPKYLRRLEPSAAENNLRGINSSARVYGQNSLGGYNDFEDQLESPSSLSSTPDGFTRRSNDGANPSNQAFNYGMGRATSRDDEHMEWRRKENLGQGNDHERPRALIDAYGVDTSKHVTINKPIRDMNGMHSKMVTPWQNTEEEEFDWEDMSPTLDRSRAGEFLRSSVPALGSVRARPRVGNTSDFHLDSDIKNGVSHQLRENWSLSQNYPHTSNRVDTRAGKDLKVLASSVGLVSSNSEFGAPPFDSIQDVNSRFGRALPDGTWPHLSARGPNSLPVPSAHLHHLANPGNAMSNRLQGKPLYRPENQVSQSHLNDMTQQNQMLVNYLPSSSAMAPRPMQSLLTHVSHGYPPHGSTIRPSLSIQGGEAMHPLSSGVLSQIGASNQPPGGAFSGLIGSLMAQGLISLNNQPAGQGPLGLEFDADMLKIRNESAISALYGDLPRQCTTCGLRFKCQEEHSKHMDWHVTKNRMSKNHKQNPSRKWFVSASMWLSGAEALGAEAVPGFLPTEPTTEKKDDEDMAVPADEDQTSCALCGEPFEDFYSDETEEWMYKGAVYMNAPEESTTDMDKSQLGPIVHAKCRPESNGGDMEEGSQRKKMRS

In experiment [2] the target is T2, AtCLPS3 (Arabidopsis) (UniProt Q9SR06).
T2 sequence: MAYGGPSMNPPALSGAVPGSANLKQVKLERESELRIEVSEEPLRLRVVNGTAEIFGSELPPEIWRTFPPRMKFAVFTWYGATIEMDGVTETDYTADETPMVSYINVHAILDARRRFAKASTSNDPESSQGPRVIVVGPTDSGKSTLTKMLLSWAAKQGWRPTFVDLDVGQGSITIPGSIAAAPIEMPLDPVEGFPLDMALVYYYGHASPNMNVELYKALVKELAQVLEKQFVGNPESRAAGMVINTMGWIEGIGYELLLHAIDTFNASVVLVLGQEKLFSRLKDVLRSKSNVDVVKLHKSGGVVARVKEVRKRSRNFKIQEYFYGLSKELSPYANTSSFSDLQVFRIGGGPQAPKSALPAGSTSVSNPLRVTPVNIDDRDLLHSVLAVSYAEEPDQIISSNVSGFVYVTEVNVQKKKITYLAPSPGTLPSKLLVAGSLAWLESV

The target in experiment [3] is T3, AtPAPS4 (Arabidopsis) (UniProt Q8VYW1).
T3 sequence: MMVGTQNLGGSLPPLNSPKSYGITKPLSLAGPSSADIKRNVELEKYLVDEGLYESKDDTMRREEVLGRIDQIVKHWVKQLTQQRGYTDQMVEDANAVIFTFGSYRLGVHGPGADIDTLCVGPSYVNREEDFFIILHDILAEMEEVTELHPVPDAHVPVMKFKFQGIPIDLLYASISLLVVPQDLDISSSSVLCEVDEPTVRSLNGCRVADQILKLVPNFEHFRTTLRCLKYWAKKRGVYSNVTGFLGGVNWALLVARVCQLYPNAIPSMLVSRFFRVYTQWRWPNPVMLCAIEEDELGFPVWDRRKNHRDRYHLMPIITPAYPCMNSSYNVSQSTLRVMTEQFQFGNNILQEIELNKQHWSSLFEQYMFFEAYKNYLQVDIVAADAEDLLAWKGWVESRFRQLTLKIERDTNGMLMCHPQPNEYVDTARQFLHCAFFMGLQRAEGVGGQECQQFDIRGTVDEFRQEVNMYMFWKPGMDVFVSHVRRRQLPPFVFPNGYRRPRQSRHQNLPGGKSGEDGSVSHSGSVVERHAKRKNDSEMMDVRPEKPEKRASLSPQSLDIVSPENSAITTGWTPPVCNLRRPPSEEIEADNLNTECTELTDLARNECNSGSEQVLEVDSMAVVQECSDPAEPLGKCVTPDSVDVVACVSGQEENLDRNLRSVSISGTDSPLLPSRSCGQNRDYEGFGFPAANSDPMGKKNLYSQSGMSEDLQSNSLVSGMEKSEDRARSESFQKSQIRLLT

B1: AtCFIS1 (protein, UniProt Q94AF0 1-222)
chain: MGEEARALDMEEISDNTTRRNDVVHDLMVDLYPLSSYYFGSKEALRVKDEIISDRVIRLKSNYAAHGLRTCVEAVLLVELFKHPHVLLLQYRNSIFKLPGGRLRPGESDIEGLKRKLASKLSVNENVGVSGYEVGECIGMWWRPNFETLMYPFLPPNIKHPKECTKLFLVRLPVHQQFVVPKNFKLLAVPLCQLHENEKTYGPIMSQIPKLLSKFSFNMMEI
As to B1, the binding entry in experiment [1], in experiment [2] and in experiment [3] was “no binding” each time.

B2: AtCFIS2 (protein, UniProt Q8GXS3 1-200)
chain: MAMSQVVNTYPLSNYSFGTKEPKLEKDTSVADRLARMKINYMKEGMRTSVEGILLVQEHNHPHILLLQIGNTFCKLPGGRLKPGENEADGLKRKLTSKLGGNSAALVPDWTVGECVATWWRPNFETMMYPYCPPHITKPKECKRLYIVHLSEKEYFAVPKNLKLLAVPLFELYDNVQRYGPVISTIPQQLSRFHFNMISS
Take B2: the binding result in experiment [1] is listed as “no binding”; in experiment [2], “no binding”; in experiment [3], “binds”.

For the origin of these results see paper PMC2391170.
